From article PMC6541591
Results are given in words; binding and its absence hold for the method and conditions named. In cells and extracts the contact can be indirect. Some results given as binding are weak or reduced against the parent protein; the word gives no strength.

By UniProt entry, the sequences of proteins in these tests, tags left out.
UniProt Q8N9U0: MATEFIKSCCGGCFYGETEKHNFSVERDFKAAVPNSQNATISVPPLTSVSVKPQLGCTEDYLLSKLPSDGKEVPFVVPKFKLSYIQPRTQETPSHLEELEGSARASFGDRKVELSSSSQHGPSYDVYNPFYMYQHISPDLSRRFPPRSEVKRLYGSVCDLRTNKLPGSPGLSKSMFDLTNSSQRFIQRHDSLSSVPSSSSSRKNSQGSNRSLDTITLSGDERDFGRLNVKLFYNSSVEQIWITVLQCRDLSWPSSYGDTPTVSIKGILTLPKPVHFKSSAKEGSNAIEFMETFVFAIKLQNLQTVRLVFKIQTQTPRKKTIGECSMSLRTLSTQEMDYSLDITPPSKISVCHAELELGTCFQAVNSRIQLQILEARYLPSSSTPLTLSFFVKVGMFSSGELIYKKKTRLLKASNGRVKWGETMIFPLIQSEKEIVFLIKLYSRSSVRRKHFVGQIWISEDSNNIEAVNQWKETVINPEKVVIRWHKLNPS

Target: TC2N (human) (UniProt Q8N9U0)
Assay: co-IP; lysates of stably transfected MCF7 and MDA-MB-231 cells, IP with Flag antibody, WB with TC2N and EBP1 antibodies

binding: binds
B1: EBP1 (protein, UniProt Q9UQ80 1-394)
chain: MSGEDEQQEQTIAEDLVVTKYKMGGDIANRVLRSLVEASSSGVSVLSLCEKGDAMIMEETGKIFKKEKEMKKGIAFPTSISVNNCVCHFSPLKSDQDYILKEGDLVKIDLGVHVDGFIANVAHTFVVDVAQGTQVTGRKADVIKAAHLCAEAALRLVKPGNQNTQVTEAWNKVAHSFNCTPIEGMLSHQLKQHVIDGEKTIIQNPTDQQKKDHEKAEFEVHEVYAVDVLVSSGEGKAKDAGQRTTIYKRDPSKQYGLKMKTSRAFFSEVERRFDAMPFTLRAFEDEKKARMGVVECAKHELLQPFNVLYEKEGEFVAQFKFTVLLMPNGPMRITSGPFEPDLYKSEMEVQDAELKALLQSSASRKTQKKKKKKASKTAENATSGETLEENEAGD
